# Screening data, single-dose tests

Protein sequences, listed by entry. Tags and fused reporters are not part of them.
UniProt P9WPC5, whole entry: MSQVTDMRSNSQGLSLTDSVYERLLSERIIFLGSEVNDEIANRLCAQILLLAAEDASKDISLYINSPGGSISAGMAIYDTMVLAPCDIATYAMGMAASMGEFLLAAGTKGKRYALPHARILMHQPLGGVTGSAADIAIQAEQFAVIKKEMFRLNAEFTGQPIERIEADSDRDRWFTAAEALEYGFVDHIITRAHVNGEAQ
UniProt P9WPC3, whole entry partner: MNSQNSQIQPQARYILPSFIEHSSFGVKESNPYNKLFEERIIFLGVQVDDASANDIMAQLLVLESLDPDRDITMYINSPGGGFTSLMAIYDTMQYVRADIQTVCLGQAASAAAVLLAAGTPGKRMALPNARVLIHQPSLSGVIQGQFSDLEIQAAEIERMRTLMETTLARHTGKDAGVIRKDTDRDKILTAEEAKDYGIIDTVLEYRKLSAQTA
UniProt I6X8D2, whole entry: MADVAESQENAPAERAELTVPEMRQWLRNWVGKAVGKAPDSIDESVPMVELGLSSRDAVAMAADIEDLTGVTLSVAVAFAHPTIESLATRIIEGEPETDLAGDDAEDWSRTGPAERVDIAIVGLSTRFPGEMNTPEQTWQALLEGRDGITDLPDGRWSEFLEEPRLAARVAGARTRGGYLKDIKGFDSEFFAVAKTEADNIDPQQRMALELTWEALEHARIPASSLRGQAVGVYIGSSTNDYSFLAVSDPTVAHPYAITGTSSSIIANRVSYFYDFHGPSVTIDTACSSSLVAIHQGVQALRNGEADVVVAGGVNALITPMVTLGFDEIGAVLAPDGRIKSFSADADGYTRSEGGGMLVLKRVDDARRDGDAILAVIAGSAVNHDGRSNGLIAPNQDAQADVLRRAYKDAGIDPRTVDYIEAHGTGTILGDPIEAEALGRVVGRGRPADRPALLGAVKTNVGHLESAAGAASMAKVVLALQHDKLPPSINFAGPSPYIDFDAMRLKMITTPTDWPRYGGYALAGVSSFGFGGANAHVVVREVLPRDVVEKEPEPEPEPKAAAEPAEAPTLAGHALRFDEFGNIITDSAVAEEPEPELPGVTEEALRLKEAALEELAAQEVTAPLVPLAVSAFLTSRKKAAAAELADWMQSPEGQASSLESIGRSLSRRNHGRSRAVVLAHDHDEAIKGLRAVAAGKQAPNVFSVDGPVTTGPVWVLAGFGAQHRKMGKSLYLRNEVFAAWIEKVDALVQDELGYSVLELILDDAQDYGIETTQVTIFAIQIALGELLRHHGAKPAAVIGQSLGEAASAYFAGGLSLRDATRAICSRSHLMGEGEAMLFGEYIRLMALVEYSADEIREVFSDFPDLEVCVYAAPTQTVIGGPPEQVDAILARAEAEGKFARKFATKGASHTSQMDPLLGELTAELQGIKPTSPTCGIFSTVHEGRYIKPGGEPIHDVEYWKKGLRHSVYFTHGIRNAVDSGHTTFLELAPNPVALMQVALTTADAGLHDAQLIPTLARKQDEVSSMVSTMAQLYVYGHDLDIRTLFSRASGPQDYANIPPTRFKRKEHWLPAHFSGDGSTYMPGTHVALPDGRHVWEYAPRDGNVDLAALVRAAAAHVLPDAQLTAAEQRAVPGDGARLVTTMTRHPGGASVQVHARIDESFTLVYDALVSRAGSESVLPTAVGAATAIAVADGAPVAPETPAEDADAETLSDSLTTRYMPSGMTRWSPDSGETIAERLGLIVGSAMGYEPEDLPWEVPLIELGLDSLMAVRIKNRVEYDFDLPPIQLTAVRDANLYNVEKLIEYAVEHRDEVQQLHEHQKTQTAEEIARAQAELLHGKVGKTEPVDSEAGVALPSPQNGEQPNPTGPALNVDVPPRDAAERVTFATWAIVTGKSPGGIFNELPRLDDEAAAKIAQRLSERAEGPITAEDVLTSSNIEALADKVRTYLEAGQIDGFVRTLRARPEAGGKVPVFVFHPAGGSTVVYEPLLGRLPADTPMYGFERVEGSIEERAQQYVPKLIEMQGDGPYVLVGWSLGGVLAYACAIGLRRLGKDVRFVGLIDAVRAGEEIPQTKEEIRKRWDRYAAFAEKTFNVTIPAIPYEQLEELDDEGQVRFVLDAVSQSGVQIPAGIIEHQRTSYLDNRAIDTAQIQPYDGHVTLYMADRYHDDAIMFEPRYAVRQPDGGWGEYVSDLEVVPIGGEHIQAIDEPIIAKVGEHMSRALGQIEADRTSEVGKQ

Measurements from “University of Dundee, Small-Polar-MMV Screening Library” (2021), ChEMBL document CHEMBL3988442.

Leishmania in macrophages: 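Cell assay of Leishmania donovani living inside macrophages; the read-out is not stated. Compounds at 30 µM. Higher reads as stronger inhibition (inferred: compounds with an IC50 in retests scored well above the rest). About 69,000 compounds were tested under these conditions; 1.5% (about 1,000) showed 50% or more at least once.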
Toxoplasma: 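Assay of Toxoplasma gondii numbers, read through their beta-galactosidase reporter with a colour substrate. Compounds at 10 µM. Higher reads as fewer parasites (inferred from which compounds were picked for retests). Size under these conditions: about 67,000 compounds, about 260 of them at 50% or above in at least one test.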
ClpP1P2: 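Protease assay of ClpP1P2, read by the AMC dye that it sets free. Target: ClpP1P2, Mycobacterium tuberculosis (UniProt P9WPC5 and UniProt P9WPC3). Tested at 50 µM. Direction is inferred from only a few compounds that gave an IC50; most scored high, so higher reads as stronger inhibition. Most other retested compounds had strongly negative values. Size under these conditions: about 69,000 compounds, about 10 of them at 50% or above in at least one test.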
T. brucei: 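Whole-parasite assay of Trypanosoma brucei over 72 hours; the read-out is not stated. Compounds at 30 µM. Higher reads as stronger inhibition (inferred: compounds with an IC50 in retests scored well above the rest). Values scatter widely below zero; nearly all retest evidence comes from the higher of the two concentrations used. About 64,000 compounds were tested under these conditions; 1.5% (about 940) showed 50% or more at least once.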
Pks13 thioesterase: 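Enzyme assay of the thioesterase domain of polyketide synthase 13; the read-out is not stated. Target: Polyketide synthase Pks13, Mycobacterium tuberculosis (UniProt I6X8D2). Compounds at 30 µM. The record gives no direction; the compounds picked for IC50 retests had high values, so higher reads as stronger inhibition. About 67,000 compounds were tested under these conditions; 0.46% (about 300) showed 50% or more at least once.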

Each number is a percent effect as filed. How 0% and 100% were set is not recorded. Most values in the screen are low, and negative values occur. This is an unselected part of the compounds tested. A dash means the value is not listed here; it may have been measured.

structure | Leishmania in macrophages | Toxoplasma | ClpP1P2 | T. brucei | Pks13 thioesterase
CCOCC1c2c(cnn2C)CCN1C(=O)c1ccncn1 (stereo unspecified) | - | - | -1.795% | - | -23.26%
Cc1noc2nc(C3CC3)c(Cl)c(C(=O)O)c12 | 15.9% | -14.42% | -10.99% | -26.68% | -0.2144%
Cn1c(=O)c2cc(C(=O)NCCc3ccccc3)ccc2n(C)c1=O | 20.13% | -7.935% | 7.702% | -21.7% | 15.52%
Cc1cnc(CN2C[C@H]3C[C@H](Oc4ccccc4)C[C@H]3C2)cn1 | - | - | 20.29% | - | -5.3%
CC(C(=O)Nc1ccccc1Sc1ccccc1)S(C)(=O)=O (stereo unspecified) | 36.5% | 18.27% | -1.706% | - | -6.966%
CN(CC(O)CO)c1nc(-c2cccnc2)nc2c1CCNC2 (stereo unspecified) | 14.75% | -4.307% | 6.069% | 21.31% | -21.33%
Cc1ccc(CN2CCCC3(CCC(=O)N3)CC2)s1.O=C(O)C(F)(F)F (stereo unspecified) | 7.521% | -2.964% | - | -16.37% | -
CC[C@@]1(O)CCN(C(=O)c2ccsc2)C[C@H]1O | -8.547% | 0.6397% | -10.53% | -31.94% | -6.695%
COCCCNC(=O)c1nnsc1-c1ccccc1 | 9.542% | -13.18% | -13.46% | 3.121% | -5.896%
Cc1csc(CN2CCC[C@]3(C[C@H](Oc4ccccn4)CO3)C2)n1 | - | - | -3.024% | - | -16.28%
Cc1cc(C)cc(NC(=O)c2cnc(N3CCN(C)CC3)nc2C)c1 | 44.34% | 22.24% | -12.2% | 22.1% | -4.785%
O=C1CCC(c2ccccc2)(c2ccccc2)CN1CCO | 22.82% | -2.479% | -2.003% | -42.56% | -13.34%
COCCCNC(=O)CN(C)C(C)c1nc(C(C)C)no1 (stereo unspecified) | -44.88% | 15.49% | -11.62% | -40.2% | -1.112%
[H][C@@]12CCN(C(=O)Nc3cccc4cc(C)oc34)C[C@@]([H])(CC1)N2C | 18.82% | 10.13% | - | -15.9% | -
CS(=O)(=O)N1C[C@@H]2CC[C@H](C1)N(C(=O)Cn1nc3ccccc3n1)C2 | - | - | 5.837% | - | -1.766%
COCCn1ccc2cc(NC(=O)COC)ccc21 | 11.46% | 7.407% | -8.892% | 51.21% | 0.5418%
CCO[C@@H]1CCN(C(=O)c2ccc[nH]2)[C@@H]1Cc1cnn(C)c1 | -3.75% | 0.4992% | -4.766% | -8.823% | -17.11%
O=C(O)C(F)(F)F.[H][C@@]12CN(C(=O)N(C)C)CCC[C@]1(C(=O)N(C)C)CN(c1ccccn1)C2 | 2.756% | -13.36% | - | -8.243% | -
Cn1cc(S(=O)(=O)N2CCCC2CC(=O)c2cccs2)cn1 (stereo unspecified) | 19.44% | -2.308% | -3.969% | -14.12% | -8.807%
CC(C)(C)c1cnc(CNCC2CCCN2c2cccnn2)o1 (stereo unspecified) | -15.75% | -2.843% | -6.85% | -29.44% | -8.284%
COc1ccccc1OCC(=O)Nc1ncccc1C | 32.58% | -52.84% | -24.41% | -34.71% | -3.137%
Clc1cccc(Cl)c1-c1nnc(CNCCn2cccn2)o1 | 13.15% | -27.15% | -5.896% | - | -1.511%
CC(=O)c1cn(CCC(=O)N[C@@H](CC(C)C)C(=O)O)c2ccccc12 | 32.27% | 4.313% | -17.01% | 0.3709% | -15.49%
[H][C@@]12CN(Cc3ccc(C(F)(F)F)cc3)C[C@]1([H])OCC(=O)N2 | -79.99% | 9.311% | - | -3.903% | -
O=C1CC(c2ccc(F)c(F)c2)c2snc(C(=O)O)c2N1 (stereo unspecified) | -26.01% | -2.152% | 5.596% | -55.23% | 68.79%
O=C(CN(Cc1cccc(F)c1)CC1CCCO1)N1CCCC1 (stereo unspecified) | -8.596% | 13.28% | -12.18% | -8.893% | -11.18%
Cc1ccccc1C(C(=O)NCCS(C)(=O)=O)N(C)C (stereo unspecified) | 10.26% | -1.238% | -2.142% | 5.024% | -8.919%
Cc1nc2n(n1)CC(NCc1cc(Cl)c3c(c1)OCCCO3)CC2 (stereo unspecified) | 15.54% | -9.856% | 0.6436% | 22.47% | -10.46%
C[C@@H](NCc1cccc(Cl)c1)c1onc(-c2ccccc2)c1C(=O)O | 20.58% | -5.181% | -3.207% | -19.64% | -16.44%
CN(C)C(=O)CN1CC[C@]2(CN(CC3CC3)C[C@H]2c2ccccc2)C1=O | - | - | -4.254% | - | -12.15%
CC(=O)N1CCN(CCCSCc2ccccc2)CC1 | 13.82% | 1.685% | -7.76% | -39% | -2.793%
CCn1ccc(-c2nnc(SCC(=O)Nc3ccc(C)cc3)n2CC)n1 | 26.85% | 6.713% | 6.838% | -26.87% | -25.12%
COCCN1CCC(c2nc3ccc(NC4CCC4)cn3n2)CC1.O=C(O)C(F)(F)F | 38.24% | -6.719% | - | 2.666% | -
O=C(NCCN1CCCCCC1)c1coc(COc2ccc(F)cc2)n1 | 9.54% | 16.19% | -4.671% | -7.344% | -6.401%
Cc1ccc(C2CN(CCCC#N)CCO2)c(C)c1 (stereo unspecified) | -0.6854% | -14.53% | -20.08% | - | -8.601%
CC(C)CS(=O)(=O)CCNc1ncccn1 | 27.45% | -10.9% | -0.93% | -5.151% | -18.07%
Cc1noc(CCNC(=O)c2ccc(N(C)C)c(F)c2)n1 | 7.05% | 0.6944% | -4.457% | -59.21% | -6.378%
COCCCC1(C(=O)O)CCCN(Cc2ccccc2C)C1 (stereo unspecified) | 25.32% | 9.965% | -2.255% | -32.02% | -26.77%
Cc1cnn(CC2CCCN2c2ccc(C#N)cn2)c1 (stereo unspecified) | -7.444% | -1.314% | -9.456% | -59.53% | -6.087%
CNS(=O)(=O)c1cccc(CNCc2ccsc2)c1 | -24.93% | 0.3751% | 0.4166% | -24% | -0.6875%
Cc1nc(N2CCCC2)nc2c1CN(C(=O)c1ccco1)CC2 | 34.94% | 17.63% | 2.63% | -23.02% | -30.44%
O=C(NC[C@]12COC[C@H]1CN(Cc1nccs1)C2)N1CCCC1 | - | - | 1.064% | - | -20.93%
N#CCCN(Cc1cccnc1)C(=O)c1ccc(-n2cnnn2)cc1 | 12.63% | -25.03% | 0.5973% | -33.32% | -15.11%

Repeated from the top, 4 entries:

- CCOCC1c2c(cnn2C)CCN1C(=O)c1ccncn1 (stereo unspecified) : ClpP1P2: -1.795%; Pks13 thioesterase: -23.26%
- Cc1noc2nc(C3CC3)c(Cl)c(C(=O)O)c12 : Leishmania in macrophages: 15.9%; Toxoplasma: -14.42%; ClpP1P2: -10.99%; T. brucei: -26.68%; Pks13 thioesterase: -0.2144%
- Cn1c(=O)c2cc(C(=O)NCCc3ccccc3)ccc2n(C)c1=O : Leishmania in macrophages: 20.13%; Toxoplasma: -7.935%; ClpP1P2: 7.702%; T. brucei: -21.7%; Pks13 thioesterase: 15.52%
- Cc1cnc(CN2C[C@H]3C[C@H](Oc4ccccc4)C[C@H]3C2)cn1 : ClpP1P2: 20.29%; Pks13 thioesterase: -5.3%